Measured values published in patent US10329272B2 (priority 2015, dated 2019).
Some entries share one result that the patent states for a list of compounds.

Tested on: Magnaporthe grisea (Pyricularia oryzae)
Type: in vivo
Details: 200 ppm; rice leaf disc preventative, inoculated 2 days after application, assessed 5-7 days after application; compared to untreated control

Compound | control of Magnaporthe grisea
Cc1cccc2c(C3=NC(C)(C)C(F)(F)c4c(F)cccc43)n(C)nc12 [Compound E-20, 1-(2,7-dimethylindazol-3-yl)-4,4,5-trifluoro-3,3-dimethyl-isoquinoline] | at least 80%
Cc1ccc2c(C3=NC(C)(C)C(F)(F)c4ccccc43)n(C)nc2c1C [Compound E-25, 4,4-difluoro-3,3-dimethyl-1-(2,6,7-trimethylindazol-3-yl)isoquinoline] | at least 80%
Cc1ccc2c(C3=NC(C)(C)C(C)(C)c4c(F)cccc43)n(C)nc2c1Cl [Compound E-27, 1-(7-chloro-2,6-dimethyl-indazol-3-yl)-5-fluoro-3,3,4,4-tetramethyl-isoquinoline] | at least 80%
